Results are given in words; binding and its absence hold for the method and conditions named. Binding seen in cells or lysates may run through a third protein. Some results given as binding are weak or reduced against the parent protein; the word gives no strength.

The chains behind the UniProt entries cited, without tags or fusion partners.
UniProt P17844: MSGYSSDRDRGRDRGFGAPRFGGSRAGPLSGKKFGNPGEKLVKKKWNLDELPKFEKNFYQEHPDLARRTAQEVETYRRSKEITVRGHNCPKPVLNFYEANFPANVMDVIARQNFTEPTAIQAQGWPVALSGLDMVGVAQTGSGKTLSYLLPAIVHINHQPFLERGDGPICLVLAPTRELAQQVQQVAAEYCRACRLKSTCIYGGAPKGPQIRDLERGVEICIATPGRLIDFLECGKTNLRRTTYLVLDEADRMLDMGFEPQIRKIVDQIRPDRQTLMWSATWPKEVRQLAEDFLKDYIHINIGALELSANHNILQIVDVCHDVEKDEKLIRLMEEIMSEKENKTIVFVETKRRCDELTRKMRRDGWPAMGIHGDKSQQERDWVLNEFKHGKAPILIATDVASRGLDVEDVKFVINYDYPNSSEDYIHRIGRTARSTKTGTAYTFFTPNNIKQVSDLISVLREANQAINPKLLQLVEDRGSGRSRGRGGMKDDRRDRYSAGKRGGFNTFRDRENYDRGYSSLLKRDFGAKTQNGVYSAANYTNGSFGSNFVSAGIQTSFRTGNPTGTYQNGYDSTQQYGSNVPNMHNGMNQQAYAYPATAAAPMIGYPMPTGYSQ
UniProt P15682: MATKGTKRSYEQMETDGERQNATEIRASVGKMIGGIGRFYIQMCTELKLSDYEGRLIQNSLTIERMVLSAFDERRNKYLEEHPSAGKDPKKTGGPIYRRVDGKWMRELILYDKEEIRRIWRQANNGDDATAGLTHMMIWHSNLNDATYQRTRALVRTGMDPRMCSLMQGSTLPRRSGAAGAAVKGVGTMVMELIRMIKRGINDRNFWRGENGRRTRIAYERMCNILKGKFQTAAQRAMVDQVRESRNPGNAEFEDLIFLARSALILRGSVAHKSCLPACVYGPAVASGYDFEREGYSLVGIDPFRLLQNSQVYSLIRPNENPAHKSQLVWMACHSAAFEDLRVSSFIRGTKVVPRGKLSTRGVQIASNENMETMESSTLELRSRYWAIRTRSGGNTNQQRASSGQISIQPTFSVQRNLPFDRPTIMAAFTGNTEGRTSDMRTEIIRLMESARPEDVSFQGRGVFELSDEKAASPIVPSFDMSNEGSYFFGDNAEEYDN

The test concerns the target endogenous DDX5 (human (endogenous in A549)) (UniProt P17844). As to the kind of experiment: co-IP.

Regarding “NP of influenza virus WSN/1933 in infected cells (from UniProt P15682 1-498)”, the binding result was “binds”.

These data come from article PMC9241928.
